Data as given in article PMC6536502.
For some assays here: A negative result means that nothing was seen under these conditions. For some assays here: Weaker means in comparison with the reference protein, sequence or condition of that experiment. For some assays here: Construct, isoform or probe ends are uncertain for at least one entry.

What was measured:
[1] = target: AimR-V129C C71S,C107S,C213S,C275S,C304S,C347S,V129C (Bacillus phage SPbeta) (UniProt O64094); experiment: smFRET competition; conditions: 1 uM arbitrium peptide GMPRGA + 1 uM DNA, high-FRET (DNA-binding) species ~6%; EMSA: 25 mM Tris-HCl pH 8.0, 150 mM NaCl, 5 mM MgCl2, 5 mM DTT, 0.1 mg/ml BSA, 10% glycerol, 50 ug/ml salmon sperm DNA, 4 C, 15 min; recombinant protein; residues 1-386
[2] = target: AimR K43D (Bacillus phage SPbeta) (UniProt O64094); experiment: EMSA; conditions: EMSA: 25 mM Tris-HCl pH 8.0, 150 mM NaCl, 5 mM MgCl2, 5 mM DTT, 0.1 mg/ml BSA, 10% glycerol, 50 ug/ml salmon sperm DNA, 4 C, 15 min; recombinant protein; residues 1-386; protein details: 6xHis removed by drICE
[3] = target: AimR K145D (Bacillus phage SPbeta) (UniProt O64094); experiment: EMSA; conditions: EMSA: 25 mM Tris-HCl pH 8.0, 150 mM NaCl, 5 mM MgCl2, 5 mM DTT, 0.1 mg/ml BSA, 10% glycerol, 50 ug/ml salmon sperm DNA, 4 C, 15 min; recombinant protein; residues 1-386; protein details: 6xHis removed by drICE
[4] = target: AimR R82D (Bacillus phage SPbeta) (UniProt O64094); experiment: EMSA; conditions: EMSA: 25 mM Tris-HCl pH 8.0, 150 mM NaCl, 5 mM MgCl2, 5 mM DTT, 0.1 mg/ml BSA, 10% glycerol, 50 ug/ml salmon sperm DNA, 4 C, 15 min; recombinant protein; residues 1-386; protein details: 6xHis removed by drICE
[5] = target: AimR K79D (Bacillus phage SPbeta) (UniProt O64094); experiment: EMSA; conditions: EMSA: 25 mM Tris-HCl pH 8.0, 150 mM NaCl, 5 mM MgCl2, 5 mM DTT, 0.1 mg/ml BSA, 10% glycerol, 50 ug/ml salmon sperm DNA, 4 C, 15 min; recombinant protein; residues 1-386; protein details: 6xHis removed by drICE
[6] = target: AimR N109D (Bacillus phage SPbeta) (UniProt O64094); experiment: EMSA; conditions: EMSA: 25 mM Tris-HCl pH 8.0, 150 mM NaCl, 5 mM MgCl2, 5 mM DTT, 0.1 mg/ml BSA, 10% glycerol, 50 ug/ml salmon sperm DNA, 4 C, 15 min; recombinant protein; residues 1-386; protein details: 6xHis removed by drICE
[7] = target: AimR K29D (Bacillus phage SPbeta) (UniProt O64094); experiment: EMSA; conditions: EMSA: 25 mM Tris-HCl pH 8.0, 150 mM NaCl, 5 mM MgCl2, 5 mM DTT, 0.1 mg/ml BSA, 10% glycerol, 50 ug/ml salmon sperm DNA, 4 C, 15 min; recombinant protein; residues 1-386; protein details: 6xHis removed by drICE
[8] = target: AimR (Bacillus phage SPbeta) (UniProt O64094); experiment: EMSA; conditions: arbitrium peptide GMPRGA; EMSA: 25 mM Tris-HCl pH 8.0, 150 mM NaCl, 5 mM MgCl2, 5 mM DTT, 0.1 mg/ml BSA, 10% glycerol, 50 ug/ml salmon sperm DNA, 4 C, 15 min; recombinant protein; residues 1-386; protein details: C-terminal 8xHis

Sequence | binding result [1] | binding result [2] | binding result [3] | binding result [4] | binding result [5] | binding result [6] | binding result [7] | binding result [8]
ATCACTTAAATATTAGGTTTTAATAACATCTAGTGAT (double strand) [37 bp DNA] | binds more weakly | – | – | – | – | – | – | –
ACTTAAATATTAGGTTTTAATAACATCTAGT (double strand) [31 bp aimX-upstream palindromic DNA] | – | binds more weakly | binds more weakly | binds more weakly | binds more weakly | binds more weakly | binds more weakly | no binding
